Results as given in article PMC3556083.
These are yes or no findings as the source states them, for the method shown. Binding seen in cells or lysates may run through a third protein. A yes stands for co-enrichment or nearness to the bait. Other partners may have been found.

Chains of the proteins cited; added tags and fusions are not shown. Lines headed by an entry give the natural chain unless they say otherwise; changes in a name come on top.
UniProt P80385: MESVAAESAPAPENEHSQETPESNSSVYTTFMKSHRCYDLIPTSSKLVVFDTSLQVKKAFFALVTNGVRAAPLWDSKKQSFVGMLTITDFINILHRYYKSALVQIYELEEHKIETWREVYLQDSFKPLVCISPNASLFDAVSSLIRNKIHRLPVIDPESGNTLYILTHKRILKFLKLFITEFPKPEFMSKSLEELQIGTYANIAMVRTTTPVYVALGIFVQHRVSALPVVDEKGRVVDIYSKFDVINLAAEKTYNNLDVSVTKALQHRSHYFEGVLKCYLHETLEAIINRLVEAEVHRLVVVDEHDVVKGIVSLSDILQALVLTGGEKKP
UniProt P61206: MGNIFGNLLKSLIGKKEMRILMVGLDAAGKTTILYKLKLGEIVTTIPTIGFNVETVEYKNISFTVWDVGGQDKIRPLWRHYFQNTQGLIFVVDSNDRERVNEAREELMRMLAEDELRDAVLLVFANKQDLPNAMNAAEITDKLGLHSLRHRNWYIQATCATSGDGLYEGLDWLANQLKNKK
UniProt Q9Z0W7: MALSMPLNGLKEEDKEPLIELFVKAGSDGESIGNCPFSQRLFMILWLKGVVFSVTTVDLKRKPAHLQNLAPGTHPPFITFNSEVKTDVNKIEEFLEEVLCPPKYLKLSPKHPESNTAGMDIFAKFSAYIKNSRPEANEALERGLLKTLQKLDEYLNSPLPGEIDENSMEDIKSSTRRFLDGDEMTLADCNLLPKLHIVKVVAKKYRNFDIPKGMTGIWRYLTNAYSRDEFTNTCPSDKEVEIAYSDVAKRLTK
UniProt Q9JJ31: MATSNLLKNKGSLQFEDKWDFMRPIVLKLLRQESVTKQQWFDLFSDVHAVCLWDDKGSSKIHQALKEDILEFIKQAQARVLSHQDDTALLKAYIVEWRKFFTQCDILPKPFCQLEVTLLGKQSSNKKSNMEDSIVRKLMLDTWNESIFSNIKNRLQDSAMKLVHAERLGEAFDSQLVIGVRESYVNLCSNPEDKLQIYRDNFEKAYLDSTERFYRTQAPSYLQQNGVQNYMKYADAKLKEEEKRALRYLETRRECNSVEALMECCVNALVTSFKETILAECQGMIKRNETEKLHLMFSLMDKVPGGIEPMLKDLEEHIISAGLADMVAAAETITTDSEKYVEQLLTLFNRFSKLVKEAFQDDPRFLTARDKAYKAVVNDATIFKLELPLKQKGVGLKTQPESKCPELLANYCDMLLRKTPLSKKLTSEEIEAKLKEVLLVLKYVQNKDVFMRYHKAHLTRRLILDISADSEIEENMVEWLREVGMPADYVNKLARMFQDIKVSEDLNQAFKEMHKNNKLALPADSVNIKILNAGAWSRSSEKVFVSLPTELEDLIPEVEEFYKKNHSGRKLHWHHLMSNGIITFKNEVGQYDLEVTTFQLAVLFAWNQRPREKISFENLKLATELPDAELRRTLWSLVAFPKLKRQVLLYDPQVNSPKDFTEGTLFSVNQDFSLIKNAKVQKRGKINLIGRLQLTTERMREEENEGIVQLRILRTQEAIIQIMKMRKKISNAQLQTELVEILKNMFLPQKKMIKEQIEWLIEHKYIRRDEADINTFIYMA
UniProt P62630: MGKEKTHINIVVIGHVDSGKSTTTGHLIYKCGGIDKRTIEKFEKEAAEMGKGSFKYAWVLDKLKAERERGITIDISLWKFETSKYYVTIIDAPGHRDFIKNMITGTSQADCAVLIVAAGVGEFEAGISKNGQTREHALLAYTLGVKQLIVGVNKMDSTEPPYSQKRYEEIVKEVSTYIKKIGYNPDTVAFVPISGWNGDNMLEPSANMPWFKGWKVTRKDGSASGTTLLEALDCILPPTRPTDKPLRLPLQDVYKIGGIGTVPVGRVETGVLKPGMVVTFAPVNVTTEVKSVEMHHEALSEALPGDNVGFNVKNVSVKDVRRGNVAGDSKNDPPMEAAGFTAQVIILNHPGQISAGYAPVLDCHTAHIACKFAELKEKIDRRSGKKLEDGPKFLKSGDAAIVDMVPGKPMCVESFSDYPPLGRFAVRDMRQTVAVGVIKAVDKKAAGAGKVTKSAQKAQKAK
UniProt P84817: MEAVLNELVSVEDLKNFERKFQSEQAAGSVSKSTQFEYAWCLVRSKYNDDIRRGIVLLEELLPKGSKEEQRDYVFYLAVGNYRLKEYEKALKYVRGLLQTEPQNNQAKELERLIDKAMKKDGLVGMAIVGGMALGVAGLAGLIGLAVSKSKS
UniProt P02091: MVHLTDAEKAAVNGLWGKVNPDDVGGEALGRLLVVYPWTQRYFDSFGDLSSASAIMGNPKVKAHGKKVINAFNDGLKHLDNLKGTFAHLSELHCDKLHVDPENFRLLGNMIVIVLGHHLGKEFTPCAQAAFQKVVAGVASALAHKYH
UniProt Q8R431: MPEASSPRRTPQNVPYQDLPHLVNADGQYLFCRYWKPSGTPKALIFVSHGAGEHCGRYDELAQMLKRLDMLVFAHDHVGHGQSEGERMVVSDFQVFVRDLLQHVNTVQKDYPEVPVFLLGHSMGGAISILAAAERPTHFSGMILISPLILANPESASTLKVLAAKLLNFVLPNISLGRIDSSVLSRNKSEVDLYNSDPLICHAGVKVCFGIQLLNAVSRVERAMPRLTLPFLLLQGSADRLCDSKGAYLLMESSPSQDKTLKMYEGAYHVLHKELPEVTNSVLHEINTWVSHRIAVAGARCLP
UniProt Q920G2: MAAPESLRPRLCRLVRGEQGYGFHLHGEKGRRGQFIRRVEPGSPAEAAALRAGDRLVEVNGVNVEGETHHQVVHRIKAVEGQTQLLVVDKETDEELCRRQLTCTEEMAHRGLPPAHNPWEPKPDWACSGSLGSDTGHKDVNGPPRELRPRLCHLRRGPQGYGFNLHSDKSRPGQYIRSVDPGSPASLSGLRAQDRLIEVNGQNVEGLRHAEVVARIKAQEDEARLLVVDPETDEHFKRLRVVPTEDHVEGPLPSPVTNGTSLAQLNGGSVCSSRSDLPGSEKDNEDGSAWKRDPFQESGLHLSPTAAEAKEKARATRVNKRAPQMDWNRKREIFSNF
UniProt P19804: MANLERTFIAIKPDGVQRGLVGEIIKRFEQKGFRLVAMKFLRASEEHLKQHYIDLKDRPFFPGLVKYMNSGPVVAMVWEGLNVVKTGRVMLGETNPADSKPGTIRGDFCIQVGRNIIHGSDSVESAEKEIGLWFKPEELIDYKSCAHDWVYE
UniProt Q62881: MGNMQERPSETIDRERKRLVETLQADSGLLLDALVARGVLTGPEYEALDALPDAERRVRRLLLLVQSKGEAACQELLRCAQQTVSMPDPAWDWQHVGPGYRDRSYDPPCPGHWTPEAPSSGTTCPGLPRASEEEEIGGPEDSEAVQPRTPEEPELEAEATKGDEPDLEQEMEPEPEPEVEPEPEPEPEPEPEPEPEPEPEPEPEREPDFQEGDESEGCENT
UniProt P62142: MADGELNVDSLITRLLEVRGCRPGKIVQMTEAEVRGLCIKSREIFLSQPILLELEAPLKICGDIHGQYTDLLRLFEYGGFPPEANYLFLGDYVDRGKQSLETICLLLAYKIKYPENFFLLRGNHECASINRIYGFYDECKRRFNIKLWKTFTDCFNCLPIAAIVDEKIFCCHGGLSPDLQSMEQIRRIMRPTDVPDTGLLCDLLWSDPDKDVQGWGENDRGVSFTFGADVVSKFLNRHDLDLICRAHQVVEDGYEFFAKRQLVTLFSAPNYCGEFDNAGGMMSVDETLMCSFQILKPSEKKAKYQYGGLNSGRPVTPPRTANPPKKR
UniProt P63331: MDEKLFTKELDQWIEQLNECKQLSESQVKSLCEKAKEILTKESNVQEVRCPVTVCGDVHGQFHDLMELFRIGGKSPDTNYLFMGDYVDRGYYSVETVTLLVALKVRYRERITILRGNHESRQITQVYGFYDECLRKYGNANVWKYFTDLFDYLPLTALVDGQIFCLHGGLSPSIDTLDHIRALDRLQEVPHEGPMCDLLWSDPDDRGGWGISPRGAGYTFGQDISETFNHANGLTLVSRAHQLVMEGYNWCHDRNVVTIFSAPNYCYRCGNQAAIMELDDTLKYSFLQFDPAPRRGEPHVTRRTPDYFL
UniProt P54645: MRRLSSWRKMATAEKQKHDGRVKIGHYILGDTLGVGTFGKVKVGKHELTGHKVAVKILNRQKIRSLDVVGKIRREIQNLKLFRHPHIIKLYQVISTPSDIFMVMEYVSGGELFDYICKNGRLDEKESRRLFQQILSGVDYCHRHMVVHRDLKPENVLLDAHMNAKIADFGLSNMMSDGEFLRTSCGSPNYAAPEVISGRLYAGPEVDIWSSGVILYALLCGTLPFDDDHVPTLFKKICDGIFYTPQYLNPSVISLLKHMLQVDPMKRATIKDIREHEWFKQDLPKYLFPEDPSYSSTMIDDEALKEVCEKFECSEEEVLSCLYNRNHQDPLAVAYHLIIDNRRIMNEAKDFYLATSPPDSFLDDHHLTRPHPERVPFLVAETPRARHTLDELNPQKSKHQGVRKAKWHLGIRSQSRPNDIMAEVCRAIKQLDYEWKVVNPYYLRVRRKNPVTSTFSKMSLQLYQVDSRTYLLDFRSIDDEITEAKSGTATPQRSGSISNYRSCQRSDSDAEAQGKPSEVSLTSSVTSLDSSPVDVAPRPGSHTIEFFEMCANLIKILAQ
UniProt P62836: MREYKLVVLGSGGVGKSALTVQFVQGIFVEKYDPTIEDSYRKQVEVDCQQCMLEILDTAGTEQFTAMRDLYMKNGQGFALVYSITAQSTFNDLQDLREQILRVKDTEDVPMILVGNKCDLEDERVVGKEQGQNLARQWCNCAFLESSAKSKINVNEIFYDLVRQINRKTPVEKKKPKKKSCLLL
UniProt Q32PX6: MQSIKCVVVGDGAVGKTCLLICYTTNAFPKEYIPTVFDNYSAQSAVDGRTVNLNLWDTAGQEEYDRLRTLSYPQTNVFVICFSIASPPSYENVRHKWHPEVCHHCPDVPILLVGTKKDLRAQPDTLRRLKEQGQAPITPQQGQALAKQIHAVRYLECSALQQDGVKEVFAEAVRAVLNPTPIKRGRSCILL
UniProt Q62868: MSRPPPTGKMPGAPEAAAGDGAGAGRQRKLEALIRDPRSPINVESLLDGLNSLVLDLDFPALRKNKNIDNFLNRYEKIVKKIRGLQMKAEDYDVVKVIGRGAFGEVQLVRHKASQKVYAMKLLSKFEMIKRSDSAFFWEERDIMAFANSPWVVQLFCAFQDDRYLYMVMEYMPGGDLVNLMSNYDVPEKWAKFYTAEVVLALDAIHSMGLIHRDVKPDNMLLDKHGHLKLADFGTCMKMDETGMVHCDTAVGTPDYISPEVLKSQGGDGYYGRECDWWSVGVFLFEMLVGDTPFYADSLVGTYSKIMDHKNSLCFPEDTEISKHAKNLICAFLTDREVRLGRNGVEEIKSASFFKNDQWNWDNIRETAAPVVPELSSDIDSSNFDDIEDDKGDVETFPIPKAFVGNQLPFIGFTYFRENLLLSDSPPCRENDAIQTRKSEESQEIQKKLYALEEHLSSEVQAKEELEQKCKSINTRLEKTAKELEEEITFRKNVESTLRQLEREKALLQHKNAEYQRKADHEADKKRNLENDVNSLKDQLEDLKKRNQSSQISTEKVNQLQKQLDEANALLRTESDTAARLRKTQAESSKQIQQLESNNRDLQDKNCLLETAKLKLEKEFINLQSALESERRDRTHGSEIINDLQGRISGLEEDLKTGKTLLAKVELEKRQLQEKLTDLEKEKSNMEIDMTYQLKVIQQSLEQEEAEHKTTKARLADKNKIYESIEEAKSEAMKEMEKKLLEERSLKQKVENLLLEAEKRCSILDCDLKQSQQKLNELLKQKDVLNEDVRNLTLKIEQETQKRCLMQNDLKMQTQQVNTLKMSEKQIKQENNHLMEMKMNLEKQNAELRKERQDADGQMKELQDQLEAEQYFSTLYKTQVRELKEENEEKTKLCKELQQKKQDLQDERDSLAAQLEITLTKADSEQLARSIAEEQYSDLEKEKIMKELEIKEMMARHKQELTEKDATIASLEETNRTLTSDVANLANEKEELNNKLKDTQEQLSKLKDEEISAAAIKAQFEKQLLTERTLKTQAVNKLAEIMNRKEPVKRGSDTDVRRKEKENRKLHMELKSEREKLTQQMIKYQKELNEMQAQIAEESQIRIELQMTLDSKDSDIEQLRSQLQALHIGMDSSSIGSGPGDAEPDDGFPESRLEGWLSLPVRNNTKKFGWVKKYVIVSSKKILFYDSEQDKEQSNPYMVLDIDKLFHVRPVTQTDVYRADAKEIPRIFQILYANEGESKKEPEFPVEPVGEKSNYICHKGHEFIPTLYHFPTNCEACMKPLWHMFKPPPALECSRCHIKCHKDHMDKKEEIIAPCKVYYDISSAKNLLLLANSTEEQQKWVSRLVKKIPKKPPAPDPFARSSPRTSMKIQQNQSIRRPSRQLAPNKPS
UniProt P63102: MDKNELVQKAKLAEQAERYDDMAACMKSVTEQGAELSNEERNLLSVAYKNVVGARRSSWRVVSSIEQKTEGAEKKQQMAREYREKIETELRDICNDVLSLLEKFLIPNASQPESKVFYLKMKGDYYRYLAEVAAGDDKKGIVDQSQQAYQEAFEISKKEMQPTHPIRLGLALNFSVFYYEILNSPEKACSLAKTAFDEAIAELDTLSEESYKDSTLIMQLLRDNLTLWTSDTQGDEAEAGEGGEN

These substances were tested against β2-adrenergic receptor (UniProt P07550) (assay: affinity purification with mass spectrometry; purified Flag-β2AR in rHDL immobilised on M1 anti-Flag resin, occupied by 50 µM BI-167107 (full agonist) or 50 µM carazolol (inverse agonist); adult rat heart cytosol (10 mg/ml, 4 mM CaCl2) overnight at 4°C; eluted with FLAG peptide and EDTA; gel slices, LC-MS; proteins of the M1 resin, empty rHDL and Ni-NTA controls subtracted; hits of either or both samples; only the target purified).

binding, binds:
AKR1B1 (from UniProt P07943 1-316)
ALDH6A1 (from UniProt Q02253 33-535)
AMPKα2 (from UniProt Q09137 1-552)
AMPKγ1 (from UniProt P80385 1-330)
ARF1 (from UniProt P84079 1-181)
ARF3 (from UniProt P61206 1-181)
ATP2A1 (from UniProt Q64578 1-994)
ATP2A3 (from UniProt P18596 1-999)
BAT3 (from UniProt Q6MG49 1-1146)
C3 (from UniProt P01026 25-1663)
CADPS (from UniProt Q62717 1-1289)
CAPN1 (from UniProt P97571 1-713)
CAPN2 (from UniProt Q07009 20-700)
CD36 (from UniProt Q07969 1-472)
CFL1 (from UniProt P45592 1-166)
CIAPIN1 (from UniProt Q5XID1 1-309)
CLIC4 (from UniProt Q9Z0W7 1-253)
COX4I1 (from UniProt P10888 23-169)
CUL5 (from UniProt Q9JJ31 1-780)
DDB1 (from UniProt Q9ESW0 1-1140)
DNM1L (from UniProt O35303 1-755)
DYNC1H1 (from UniProt P38650 1-4644)
DYNLL1 (from UniProt P63170 1-89)
EEF1A1 (from UniProt P62630 1-462)
ELAVL1 (from UniProt B5DF91 1-326)
FIS1 (from UniProt P84817 1-152)
GNAI2 (from UniProt P04897 1-355)
GNB3 (from UniProt P52287 1-340)
Grb2 (from UniProt P62994 1-217)
HBB (includes EG:3043) (from UniProt P02091 1-147)
HNRNPK (from UniProt P61980 1-463)
HSPB1 (from UniProt P42930 1-206)
IQGAP1 (from UniProt A0A8I6AJK7 1-1776)
KPNB1 (from UniProt P52296 1-875)
LIPE (from UniProt P15304-2)
MAP4 (from UniProt Q5M7W5 1-1057)
MGLL (from UniProt Q8R431 1-303)
MPST (from UniProt P97532 1-297)
MTHFD1 (from UniProt P27653 1-935)
NHERF-2 (from UniProt Q920G2 1-337)
NME2 (from UniProt P19804 1-152)
NOL3 (from UniProt Q62881 1-221)
NRAS (from UniProt Q04970 1-189)
OPA1 (from UniProt Q2TA68 88-960)
PCYT1A (from UniProt P19836 1-367)
PPP1CB (from UniProt P62142 1-327)
PPP2CA (from UniProt P63331 1-309)
PPP2CB (from UniProt P62716 1-309)
PRKAA1 (from UniProt P54645 1-559)
PRKAB1 (from UniProt P80386 1-270)
PSMC1 (from UniProt P62193 1-440)
PSMC3 (from UniProt Q63569 1-439)
PSMC4 (from UniProt Q63570 1-418)
PSMD2 (from UniProt Q4FZT9 1-908)
PSME1 (from UniProt Q63797 1-249)
PSME2 (from UniProt Q63798 1-238)
RAB1A (from UniProt Q6NYB7 1-205)
RAB6A (from UniProt Q9WVB1 1-208)
RAP1A (from UniProt P62836 1-184)
RHEB (from UniProt Q62639 1-184)
RHOG (from UniProt Q32PX6)
ROCK2 (from UniProt Q62868 1-1388)
SDHA (from UniProt Q920L2 35-656)
SLK (from UniProt O08815 1-1206)
SOD1 (from UniProt P07632 1-154)
STAT3 (from UniProt P52631 1-770)
SUCLG1 (from UniProt P13086 35-346)
Serine/threonine-protein phosphatase 2B, catalytic subunit alpha (from UniProt P63329 1-521)
TPP1 (from UniProt Q9EQV6)
UBA1 (from UniProt Q5U300 1-1058)
UGGT1 (from UniProt Q9JLA3 43-1551)
YWHAE (from UniProt P62260 1-255)
YWHAH (from UniProt P68511 1-246)
YWHAZ (from UniProt P63102 1-245)
